Assay results reported in article PMC10163288.
Some of the results follow.

B1: il10ra_site1_normal_mot_HHH_b1_05056_000000217_0001_1_20_H_._HHH_b2_00128_0001_0000100005_0000001_0 (protein)
chain: SSSSSDYEEEVEELLEEAERIENPEEAAEVLQRATRLALEAQDPELLQLVWRVVKEIAGSSSSSS
B2: il10ra_site1_sap_21_mot_HHH_b1_07962_000000254_0001_41_55_H_._HHH_b2_07492_af2_0001_0000200005_0000002_0_0001_af2pred_dldesign_0_af2pred (protein)
chain: SSSSSDLDALIKELASLSTKVSLETAARLFDTLVRAHQLRQAGKPEEAAALLEAALAEVRSSSSS
B3: il10ra_site1_sap_22_mot_HHH_b2_04092_000000110_0001_42_56_H_._HHH_b2_08238_0001_0000500040_0000003_0_0001_af2pred_0001 (protein)
chain: SSSSSDEEYREQVEELLEEAKHIPDPDERSYVLIRAFALATQGRDPELEKLVEEVIKELISSSSS
B4: il10ra_site1_sap_14_mot_HHH_b2_04592_000000276_0001_41_54_H_._HHH_b2_03457_af2_0001_0000500035_0000002_0_0001 (protein)
chain: SSSSDRYVKLTIKFAEALLEAGDPEAARALLRALLQALKELGNEELFKEVEEILEEVERRSSSSS
B5: il10ra_site1_sap_21_mot_HHH_b2_00984_000000042_0001_1_20_H_._HHH_b1_03130_af2_0001_0000400023_0000002_0_0001_af2pred_0001 (protein)
chain: SSSSSEEELREIFEEAEELIEEALRKKDPELRHRVFRLIRELAELGDPEAALRLSKLFNSGSSSS
B6: il10ra_site1_normal_mot_HHH_b2_00943_af2_000000149_0001_1_17_H_._HHH_b1_03920_0001_0000300023_0000002_0 (protein)
chain: SSSSTNIEFLARQVFKALENLLEAGDEEKIEEVLRILENLARIHNDELAEELLREIREKLSSSSS
B7: il10ra_site1_normal_mot_HHH_b2_06864_af2_000000190_0001_1_20_H_._HHH_b2_08013_af2_0001_0000200015_0000001_0 (protein)
chain: SSSSQEAFEIAREAIERASELQRNGNPEEAEELLREAIREVEELGNQAAVFSLRHLLRLVSSSSS
B8: il10ra_site1_normal_mot_HHH_b1_06914_000000280_0001_1_18_H_._HHH_b1_02342_af2_0001_0000100001_0000001_0 (protein)
chain: SSSSSEDHEIYRLLREAAELEANGDPEKAREVLEEAEELAEELGNRNLLHVARFMLRALNSSSSS
B9: il10ra_site1_normal_mot_HHH_b2_02736_000000092_0001_22_38_H_._HHH_b1_08445_0001_0000500069_0000001_0 (protein)
chain: SSSSSQEVYELLRKAIELLREGNPEEAEKVLEEAEELAREENNEVLLYVIEFLDRDIKEQSSSSS
B10: il10ra_site1_sap_16_mot_HHH_b1_05052_000000015_0001_1_19_H_._HHH_b1_00808_af2_0001_0000100003_0000001_0_0001_af2pred_0001 (protein)
chain: SSSSSDEEEREVEEILREAEEIEDPEERSYALLRAYAVAYRVKDPELRKLVRRVARELISSSSSS
B11: il10ra_site1_normal_mot_HHH_b1_01821_000000158_0001_23_39_H_._HHH_b1_04578_0001_0000500034_0000001_1 (protein)
chain: SSSSSEFQRLAQRAVQLAFRLSDQEVLRRIWELFKRYIEEGDPRLEEELEELLEELEERGSSSSS
B12: il10ra_site1_sap_15_mot_47763b419dcba15278d0659274068abf_0001_af2_000000068_0001_35_48_H_._HHH_b2_05710_0001_0000300013_0000002_0_0001 (protein)
chain: SSSSSSDAEEEARELIEEAEQIEDERKAVEILAEAVRLAFEAGNAELLREIWRAIKELSSSSSSS
B13: il10ra_site1_normal_mot_HHH_b2_06795_000000133_0001_42_56_H_._HHH_b1_06187_0001_0000300027_0000002_0 (protein)
chain: SSSSDEEERVRQALRFAEALRKSGSPEAAESLLRFLLQTLKRLGDEELFEEVERLLEELRKSSSS
B14: il10ra_site1_normal_mot_HHH_b2_00984_000000042_0001_1_20_H_._HHH_b2_00283_af2_0002_0000500024_0000001_0 (protein)
chain: SSSSNEEIREALRLAAEASAFAIERSDPELLQELWELIKELAEKGDPELAEELAELAERILSSSS
B15: il10ra_site1_sap_13_mot_HHH_b2_00984_000000042_0001_1_20_H_._HHH_b2_01216_af2_0001_0000500012_0000001_1_0001 (protein)
chain: SSSSSSEAAREVAELLVEASRIEDPEERRKLLEEARRVAEEGNNQLLRWQVEWMEERLEKSSSSS
B16: il10ra_site1_sap_13_mot_HHH_b1_03327_000000294_0001_1_19_H_._HHH_b1_04707_0001_0000500018_0000002_0_0001 (protein)
chain: SSSSSQEELLKLLQEAFRLALRGNPEEAKEVLEEAREIAEELGDERALKMAEDLLRAIEGSSSSS
B17: il10ra_site1_sap_18_mot_05ca327611f5605f0dd8494b449afcbf_0001_1_000000248_0001_35_51_H_._HHH_b1_02758_0001_0000200015_0000001_0_0001 (protein)
chain: SSSSSEAEEYARLASRFARAMYEAGDPEAAQRLLKMMLDVLERLNDEEALEIIREVLEELSSSSS
B18: il10ra_site1_sap_23_mot_HHH_b2_02736_000000092_0001_22_38_H_._HHH_b2_03465_af2_0001_0000100001_0000001_0_0001_af2pred_0001 (protein)
chain: SSSSSEELQEVIRLSREAAELLSEGDEEKAQEVLEEALELAEEANNELAAFLVRSLLKRVSSSSS
B19: il10ra_site1_sap_17_mot_HHH_b1_03900_000000129_0001_1_16_H_._HHH_b1_06013_af2_0001_0000200008_0000001_0_0001 (protein)
chain: SSSSSDEQERLLELSKEAFRLALRGDPEEAQRVLEEAHELAEELGDERAAEMIRDLLKALSSSSS
B20: il10ra_site1_normal_mot_HHH_b1_03031_af2_000000117_0001_17_33_H_._HHH_b2_05648_af2_0001_0000200007_0000001_0_af2pred_0001 (protein)
chain: SSSSDLEEKIKEAEEEVKRLEEEGDEEEARKLILKILYLASRAGDRELAHRLLKLLAEIRSSSSS
B21: il10ra_site1_sap_16_mot_HHH_b1_06348_000000162_0001_1_15_H_._HHH_b2_06365_af2_0001_0000500005_0000001_0_0001 (protein)
chain: SSSSSDEKEELIRLALRLARAFIRGDEELIKELLEEVKKIAKELNDERMLKFLERLEKALSSSSS
B22: il10ra_site1_sap_15_mot_HHH_b1_05329_000000008_0001_43_56_H_._HHH_b2_00508_af2_0001_0000400016_0000001_0_0001 (protein)
chain: SSSSSDVEELLEEVEEAIEEGDLELALELLYEATHFALRAGDAELLHLVWRLVEELKERRSSSSS
B23: il10ra_site1_sap_16_mot_HHH_b2_00984_000000042_0001_1_20_H_._HHH_b1_03130_af2_0002_0000500031_0000001_0_0001 (protein)
chain: SSSSSLAENAHEFWKSLDEWAVRMGDPETVEKLVKHARIALERAGNPELVEELEKLHEELNSSSS
B24: il10ra_site1_normal_mot_HHH_b2_01310_000000089_0001_41_55_H_._HHH_b2_06195_0001_0000100002_0000002_0 (protein)
chain: SSSSSDEEVEELEEEIRRLLEEGNPKEAVRVLQELVRLAFELRDEEAFHLAIELARLIASSSSSS
B25: il10ra_site1_normal_mot_HHH_b1_02809_af2_000000277_0001_40_57_H_._HHH_b1_07120_0001_0000300026_0000001_1 (protein)
chain: SSSSSEAERSVRILIEAAERLEELGDPEKARLTLRFAVALAKAANNPELLEEARELLEKLKSSSS
B26: il10ra_site1_normal_mot_HHH_b1_07503_000000138_0001_1_18_H_._HHH_b1_01429_0001_0000200008_0000001_0 (protein)
chain: SSSSNYEEAIENAARQAFETIEKLGNPEAEQYLETLLEAARILGDEELEELIEQLLRELRSSSSS
B27: il10ra_site1_sap_26_mot_HHH_b1_03531_000000273_0001_41_54_H_._9f5b7fc4e9d6b3037bff8dd1fb84ce76_0001_0001_0000300016_0000001_0_0001 (protein)
chain: SSSSSTEEAYRLSREAVELASEGDPEEAEKVAEEALEIAEEEGNRVVAVVIRYVLEVIRNSSSSS
B28: il10ra_site1_sap_20_mot_HHH_b2_05540_000000178_0001_1_18_H_._HHH_b2_06309_0001_0000100008_0000001_0_0001 (protein)
chain: SSSSSDEVEEEVEELLEEARQIEDKEKALRLVLEALRFAIQNQNKELLRLVWKVVHEVAQSSSSS
B29: il10ra_site1_normal_mot_HHH_b1_07641_af2_000000285_0001_1_21_H_._HHH_b1_01682_af2_0001_0000200014_0000002_0_af2pred_0001 (protein)
chain: SSSSSEEVIELIREAAQLLREGDKEEAREVAKEALELAEELGNVIARVNIELLIRDIEDLSSSSS
B30: il10ra_site1_sap_20_mot_HHH_b2_03163_000000105_0001_1_19_H_._HHH_b2_03057_af2_0001_0000200008_0000001_0_0001_af2pred_0001 (protein)
chain: SSSSSEDRELARLSLRAARWLAKANDEEAIRIAFHFVKLLLELTNDEEVRELLEEIEELLSSSSS
B31: il10ra_site1_sap_14_mot_HHH_b2_00952_af2_000000228_0001_1_18_H_._HHH_b1_02318_0002_0000300043_0000001_0_0001 (protein)
chain: SSSSDEAYEVAKKAIERVIELYRRGNEEEAKELLEEALREVEELNNWAALWSLRHLLRVLKSSSS
B32: il10ra_site1_normal_mot_8756ee2cf497b5429c717dfc0c0bcfd6_0001_000000186_0001_1_13_H_._HHH_b2_06757_0001_0000400009_0000001_0_af2pred_0001 (protein)
chain: SSSSSSQEVLQELRRLLEEALRIEDEEEAKEVLEEARELAEENNNLIFLAILEFLLKRLSSSSSS
B33: il10ra_site1_sap_13_mot_HHH_b2_00800_af2_000000047_0001_1_20_H_._HHH_b2_07878_af2_0001_0000500019_0000002_0_0001_af2pred_0001 (protein)
chain: SSSSTQAEALFRLARESVEYALEQGNEELARRSLKLRIFSLEELGDEELAKELHELLREISSSSS
B34: il10ra_site1_normal_mot_HHH_b1_03031_af2_000000117_0001_17_33_H_._HHH_b1_04005_af2_0001_0000700014_0000002_0 (protein)
chain: SSSSSDEEERRRAAELYFRAARLGDEELAVRLIQLLARYLQEGDPRYVEEMEELVEEVEKSSSSS
B35: il10ra_site1_normal_mot_HHH_b2_02463_af2_000000222_0001_1_19_H_._HHH_b1_06264_af2_0001_0000100001_0000001_0_af2pred_0001 (protein)
chain: SSSSDEEEREELKERIEEAIEKNDPELLLKLAIEAAQLALQLEDRELTELVLEAAELLRRLSSSS
B36: il10ra_site1_normal_mot_HHH_b2_00475_000000002_0001_44_57_H_._HHH_b1_00702_af2_0001_0000600012_0000002_0_af2pred_0001 (protein)
chain: SSSSNEEAVELALRALEIAYELGDKEKFEAAYRLAEREIKRLGDEELERELKELYEELEKSSSSS
B37: il10ra_site1_normal_mot_HHH_b1_01011_000000096_0001_1_19_H_._HHH_b1_07452_0001_0000100012_0000001_0 (protein)
chain: SSSSSEEERYLKLSLRFAEALLENGDPEAARRILEAAEDIARRLGNEELLERAEELLEEARSSSS

target: il10ra, Q13651; assay: yeast display titration

Apparent Kd, inactive:
B1 no binding seen
B2 no binding seen
B3 no binding seen
B4 no binding seen
B5 no binding seen
B6 no binding seen
B7 no binding seen
B8 no binding seen
B9 no binding seen
B10 no binding seen
B11 no binding seen
B12 no binding seen
B13 no binding seen
B14 no binding seen
B15 no binding seen
B16 no binding seen
B17 no binding seen
B18 no binding seen
B19 no binding seen
B20 no binding seen
B21 no binding seen
B22 no binding seen
B23 no binding seen
B24 no binding seen
B25 no binding seen
B26 no binding seen
B27 no binding seen
B28 no binding seen
B29 no binding seen
B30 no binding seen
B31 > 583 nM
B32 no binding seen
B33 no binding seen
B34 no binding seen
B35 no binding seen
B36 no binding seen
B37 no binding seen

Reprinted at random: 2 entries already listed.
Apparent Kd, inactive:
B21 no binding seen
B26 no binding seen
